From PMC3796306 come the findings set out here.

By UniProt entry, the sequences of proteins in these tests, tags left out.
UniProt P26599: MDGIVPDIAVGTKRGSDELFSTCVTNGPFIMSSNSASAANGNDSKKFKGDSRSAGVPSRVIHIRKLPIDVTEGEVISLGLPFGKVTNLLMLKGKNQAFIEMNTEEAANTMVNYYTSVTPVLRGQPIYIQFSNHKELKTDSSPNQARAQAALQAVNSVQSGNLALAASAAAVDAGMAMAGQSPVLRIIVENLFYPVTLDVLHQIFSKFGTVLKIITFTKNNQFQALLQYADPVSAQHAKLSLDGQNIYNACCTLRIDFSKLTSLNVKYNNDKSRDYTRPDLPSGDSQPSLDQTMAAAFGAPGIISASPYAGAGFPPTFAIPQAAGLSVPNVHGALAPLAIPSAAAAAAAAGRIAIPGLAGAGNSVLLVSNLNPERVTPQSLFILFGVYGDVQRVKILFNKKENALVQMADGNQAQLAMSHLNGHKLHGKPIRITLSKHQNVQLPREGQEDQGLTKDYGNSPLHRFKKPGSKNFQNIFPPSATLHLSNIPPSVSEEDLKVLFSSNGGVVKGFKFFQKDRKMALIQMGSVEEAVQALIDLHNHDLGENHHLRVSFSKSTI

The target in the assay is T1, Histidine-tagged hnRNP L (human) (UniProt P14866).
T1 sequence: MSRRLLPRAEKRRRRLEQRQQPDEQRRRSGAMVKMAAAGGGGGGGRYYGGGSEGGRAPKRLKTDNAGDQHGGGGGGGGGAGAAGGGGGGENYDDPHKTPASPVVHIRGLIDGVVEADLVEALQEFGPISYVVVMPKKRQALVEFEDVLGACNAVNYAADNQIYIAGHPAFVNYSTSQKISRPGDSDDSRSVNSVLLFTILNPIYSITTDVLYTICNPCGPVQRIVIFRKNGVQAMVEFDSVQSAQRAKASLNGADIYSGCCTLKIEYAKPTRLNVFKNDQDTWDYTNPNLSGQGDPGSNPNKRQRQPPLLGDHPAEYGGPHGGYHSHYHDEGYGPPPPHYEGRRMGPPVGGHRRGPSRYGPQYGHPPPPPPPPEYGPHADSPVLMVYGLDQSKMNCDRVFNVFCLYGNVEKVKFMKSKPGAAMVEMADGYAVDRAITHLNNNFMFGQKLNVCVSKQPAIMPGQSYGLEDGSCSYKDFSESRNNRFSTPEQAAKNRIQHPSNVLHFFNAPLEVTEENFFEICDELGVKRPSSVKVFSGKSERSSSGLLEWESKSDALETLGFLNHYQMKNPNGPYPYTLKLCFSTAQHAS
Put plainly: co-IP; 100 ug nuclear extract of transfected SH-SY5Y cells precipitated with 2 ug anti-His-tag antibody (Nuclear Complex Co-IP kit), in the presence of RNase A, NaCl up to 150 mM; protein G beads; blot for endogenous PTB.

Results are given in words; binding and its absence hold for the method and conditions named. Binding seen in cells or lysates may run through a third protein. Some entries that bind do so weakly or less than the wild type. Tags and fused reporters may be left off the sequences shown.

Regarding “polypyrimidine tract-binding protein (PTB) (from UniProt P26599 1-557)”, the binding result is listed as “binds”.
